This passage reports binding results from patent publication US20240101717A1 (BIONECURE THERAPEUTICS, published 2024).

For assay [1], the target named is human Trop-2 (human). The experiment in a line: flow cytometry on MDA-MB-468 cells (Trop-2 but no HER2); parental comparator. On the technique in general: Flow cytometry measures light scatter and fluorescence of single cells or particles in a stream.
Assay [2] deals with human Trop-2 (human). The experiment in a line: flow cytometry on MDA-MB-468 cells (Trop-2 but no HER2); comparator as printed.

These are yes or no findings as the source states them, for the method shown. Binding can be weak; no strength is given.

B1: anti-Trop-2 antibody A1,2X4 (antibody, V domains shown)
VH: QVQLQESGPGLVKPSETLSLTCTVSGFSLTSYGVNWIRQPPGKGLEWIGVMWAGGSTNYNSALMSRLTISKDTSKNQFSLKLSSVTAADTAVYYCARDENWDGAWFAYWGQGTLVTVSS
VL: DIVMTQSPDSLAVSLGERATINCKSSQSLLNSGTRKNYLAWYQQKPGQPPKLLISWASSRESGVPDRFSGSGSGTDFTLTISSLQAEDVAVYYCKQSYNLFTFGGGTKVEIK
With B1, the binding result in assay [1] and in assay [2] was “binds” in each case.
